Binding data for one molecule are collected here from US6794414B1, “Method and compositions for treating diseases mediated by transglutaminase activity” (Yeda Research and Development Co. Ltd., priority 1998, dated 2004).

Sequences of proteins named here, by UniProt entry; tags and fusion partners are left off. Residues count along the entry.
UniProt P42858, residues 1-310: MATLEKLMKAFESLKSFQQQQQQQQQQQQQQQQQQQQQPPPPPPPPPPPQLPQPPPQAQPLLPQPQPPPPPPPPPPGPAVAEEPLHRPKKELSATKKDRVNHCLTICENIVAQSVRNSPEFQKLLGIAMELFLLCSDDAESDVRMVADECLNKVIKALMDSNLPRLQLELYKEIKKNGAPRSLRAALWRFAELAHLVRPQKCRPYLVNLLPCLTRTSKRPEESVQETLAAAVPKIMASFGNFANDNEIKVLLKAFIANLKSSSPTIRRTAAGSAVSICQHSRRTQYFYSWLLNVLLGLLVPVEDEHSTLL

Assay [1] addresses httQ23 (310 amino acids) (UniProt P42858). The experiment in a line: Western blot of a gel parallel to the 35S gel. (Immunoblotting shows a protein as a band on a membrane.)
For assay [2] the target is unchanged. The experiment in a line: Western blot, co-migration with 35S labelled htt aggregates.

No constants are given. Whether binding was seen depends on the method and setting. Some binding calls cover weakened binding; strength is not graded here.

B1: guinea pig liver TGase (Sigma) (enzyme, UniProt P08587 2-690, looked up)
chain: AEDLILERCDLQLEVNGRDHRTADLCRERLVLRRGQPFWLTLHFEGRGYEAGVDTLTFNAVTGPDPSEEAGTMARFSLSSAVEGGTWSASAVDQQDSTVSLLLSTPADAPIGLYRLSLEASTGYQGSSFVLGHFILLYNPRCPADAVYMDSDQERQEYVLTQQGFIYQGSAKFINGIPWNFGQFEDGILDICLMLLDTNPKFLKNAGQDCSRRSRPVYVGRVVSAMVNCNDDQGVLQGRWDNNYSDGVSPMSWIGSVDILRRWKDYGCQRVKYGQCWVFAAVACTVLRCLGIPTRVVTNFNSAHDQNSNLLIEYFRNESGEIEGNKSEMIWNFHCWVESWMTRPDLEPGYEGWQALDPTPQEKSEGTYCCGPVPVRAIKEGHLNVKYDAPFVFAEVNADVVNWIRQKDGSLRKSINHLVVGLKISTKSVGRDEREDITHTYKYPEGSEEEREAFVRANHLNKLATKEEAQEETGVAMRIRVGQNMTMGSDFDIFAYITNGTAESHECQLLLCARIVSYNGVLGPVCSTNDLLNLTLDPFSENSIPLHILYEKYGDYLTESNLIKVRGLLIEPAANSYVLAERDIYLENPEIKIRVLGEPKQNRKLIAEVSLKNPLPVPLLGCIFTVEGAGLTKDQKSVEVPDPVEAGEQAKVRVDLLPTEVGLHKLVVNFECDKLKAVKGYRNVIIGPA
B1: the binding result with httQ23 (310 amino acids) [1] and with httQ23 (310 amino acids) [2] was “binds” in each case.
